Reference: patent US5965743A, “N-substituted imidazol derivative” (Nippon Soda Co., Ltd., priority 1994, dated 1999)
For at least one compound, name, drawing or mass did not settle the structure.

Test system: biosynthesis of cholesterol
Assay: Inhibitory effect on biosynthesis of cholesterol in cell-free biosystem
Type: biochemical, rat (SD-strain)
Details: cell-free rat liver enzyme system, 90 min, 37° C., pH 7.4; read-out: 50% Inhibitory Concentration (IC50), cholesterol biosynthesis
Procedure: Inhibitory Effect on Biosynthesis of Cholesterol in Cell-free Biosystem
(1) Preparation of Enzyme Reaction System
The preparation of the enzymatic system for the biosynthesis of cholesterol in rats was carried out according to the method described in Biochimica et Biophysica Acta, Vol.486, pp 70-81, 1977.
More particularly, SD-strain female rats weighing from […] were fed for 7 to 10 days with a diet containing 2% cholestyramine to enhance their biosynthetic activity of cholesterol. After killed the rats by means of depletion of blood in midnight, the livers thereof were removed and homogenized with a double volume of 0.1 M potassium phosphate buffer solution (pH 7.4) containing 15 mM nicotine amide and 2 mM magnesium chloride by using a loose fitting-type teflon homogenizer. The supernatant obtained by centrifuging the homogenate at 12,000×g for 30 min. was further centrifuged at 105,000×g for 90 min., thereby separating it to the microsome fraction and the supernatant fraction. […]
Cholesterol biosynthesis activity was measured according to the method described in Biochimica Biophysica Acta, Vol.486, pp 70-81, 1977. […] The cholesterol spot was then taken out from the plate, and the radient activity of the spot was measured by using a liquid scintillation counter. […]

## CCCCCCCCOc1ccc(Cn2ccnc2)cc1 [Compound 2-117, 1-[(4-octyloxy)benzyl]imidazole]
  IC50: 22 µM
